Test results published in paper PMC5643397.
No constants are given. Whether binding was seen depends on the method and setting. In cells and extracts the contact can be indirect. Some binding calls cover weakened binding; strength is not graded here. Values belong to the substance of their own block, whether it stands above or below them.

Sequences of proteins named here, by UniProt entry; tags and fusion partners are left off. A change or cut given only in a name is not applied to a line headed by its entry.
UniProt P55263: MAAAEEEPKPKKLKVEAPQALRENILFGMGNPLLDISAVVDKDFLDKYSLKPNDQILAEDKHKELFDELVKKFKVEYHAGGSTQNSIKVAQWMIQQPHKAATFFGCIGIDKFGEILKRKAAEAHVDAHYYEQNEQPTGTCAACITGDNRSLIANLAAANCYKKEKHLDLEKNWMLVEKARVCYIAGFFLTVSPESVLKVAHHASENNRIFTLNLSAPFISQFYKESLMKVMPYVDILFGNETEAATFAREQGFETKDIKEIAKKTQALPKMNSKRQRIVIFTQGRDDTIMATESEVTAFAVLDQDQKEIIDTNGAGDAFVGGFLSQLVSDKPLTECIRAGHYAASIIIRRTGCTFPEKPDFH
UniProt P23526: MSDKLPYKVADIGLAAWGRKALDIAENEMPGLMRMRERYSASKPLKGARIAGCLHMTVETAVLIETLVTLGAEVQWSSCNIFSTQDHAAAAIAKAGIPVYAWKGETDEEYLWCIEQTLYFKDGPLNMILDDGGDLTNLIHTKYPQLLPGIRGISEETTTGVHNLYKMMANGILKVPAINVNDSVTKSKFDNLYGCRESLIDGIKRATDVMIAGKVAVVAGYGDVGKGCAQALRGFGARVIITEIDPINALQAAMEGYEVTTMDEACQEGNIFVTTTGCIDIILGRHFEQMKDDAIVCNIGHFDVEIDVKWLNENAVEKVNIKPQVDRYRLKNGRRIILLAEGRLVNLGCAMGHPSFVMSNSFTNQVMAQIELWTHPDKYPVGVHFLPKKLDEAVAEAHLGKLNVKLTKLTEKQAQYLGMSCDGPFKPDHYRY

Tests used:
[1] = target: adenosine kinase (ADK), endogenous in HUVECs (human (endogenous in HUVECs)) (UniProt P55263); assay: co-IP; lysate (RIPA buffer) of HUVECs overexpressing His-tagged SAHH; IP with mouse anti-His antibody or, reciprocally, goat anti-ADK antibody on protein G-sepharose, overnight; washes with 0.05 M HEPES pH 7.1, 0.15% Triton X-100, 0.15 M NaCl; immunoblot with rabbit anti-ADK and rabbit anti-SAHH
[2] = target: adenosine kinase (ADK), endogenous in HUVECs (human (endogenous in HUVECs)) (UniProt P55263); assay: co-IP; lysate (RIPA buffer) of non-transfected HUVECs treated with vehicle or TNF-α (10 ng/ml for 12 h); IP with goat anti-ADK antibody on protein G-sepharose; immunoblot with rabbit anti-SAHH and rabbit anti-ADK
[3] = target: His-fused human S-adenosylhomocysteine hydrolase (SAHH), overexpressed in HUVECs (human) (UniProt P23526); assay: co-IP; lysate (RIPA buffer) of HUVECs overexpressing His-tagged SAHH; IP with mouse anti-His antibody or, reciprocally, goat anti-ADK antibody on protein G-sepharose, overnight; washes with 0.05 M HEPES pH 7.1, 0.15% Triton X-100, 0.15 M NaCl; immunoblot with rabbit anti-ADK and rabbit anti-SAHH

binding [1]: binds
Substance: His-fused human S-adenosylhomocysteine hydrolase (SAHH), overexpressed in HUVECs (from UniProt P23526-1 1-432) (enzyme)

binding [2]: binds
Substance: S-adenosylhomocysteine hydrolase (SAHH), endogenous in HUVECs (from UniProt P23526 1-432) (enzyme)

binding [3]: binds
Substance: adenosine kinase (ADK), endogenous in HUVECs (from UniProt P55263 1-362) (enzyme)
